Assay results reported in the supplement of paper PMC10338343.
± gives the standard deviation. The list shows a part of the results, in another mix than the full data. Many entries were measured with a wide error.

Each sequence was assayed on MILI (PIWIL2) piRISC loaded with Kctd7 piRNA (26 nt) (assay: pre-steady-state target cleavage rate (min^-1); MIWI and MILI are mouse PIWI proteins and EfPiwi is from a freshwater sponge; tags in brackets are library labels; higher = faster piRNA-guided slicing of the target). Conditions: guide: Kctd7 piRNA 5'p-UGUUAAUCUCUCAGAGAAGGUGACAG; auxiliary factor: 500 nM mouse GTSF1.
Method in brief: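 With or without 500 nM GTSF1 partner protein, 1 nM active affinity-purified piRISC carrying one synthetic guide was mixed with 0.1 nM transcribed, DNA-blocked target RNA library in HEPES–potassium acetate buffer at 33 °C for 0–8 or 0–960 min. Uncleaved targets were sequenced and normalised to depth and to weakly complementary targets, three trials were pooled, and k3 was capped at 0.0001 min^-1. The pre-steady-state cleavage rate came from a burst-and-steady-state fit.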

Sequence	pre-steady-state target cleavage rate
UAGUGACAGUGGAAGAGUCAGACAUUAACA	0.000121 ± 0.039
UAGUGACAGACCUUCUGCUGAGAGAUUAACA	0.000711 ± 0.018
UAGUGACUCACCUUCUCUGAGUCAUUAACA	0.00108 ± 0.01
UAGUGACAGUCCAUCUCUGAGAGUUUAACA	0.00301 ± 0.0032
UAGUGAGUCAGGAUCUCUGAGAGAUUAUGA	0.0014 ± 0.0042
UAGUGACUCACCUUCUCUGAGAGAUUAAA	0.13 ± 0.031
UAGUGACAGACGUUCUCUGAGUGAUUAACA	0.00122 ± 0.01
UAGUGACAGUGGAUCAUCUGAGAGAUUAACA	0.000963 ± 0.0028
UAGUGACAGUCCUUCUCUGAGCGAUUAACA	0.00135 ± 0.0049
UAGUGACAGUGGAACUCUGAGAGAUUAAGCA	0.000173 ± 0.033
UAGUGACAGUGGAAGUCUGAUAGAUUAACA	0.000256 ± 0.0097
UAGUGACAGUGGAACUCUGAUAGAUUAACA	0.00019 ± 0.027
UAGUGUGUCAGCUUCUCUGUGAGAUUAACA	0.0415 ± 0.0032
UAGUGACAGUGGAAGAGUGAGUCAUUAACA	0.00063 ± 0.011
UAGUGACAGACGUACUCUGAGAGAUUAACA	0.014 ± 0.0034
UAGUGACUCACCUUCUCUGACAGAAUAACA	0.00203 ± 0.0057
UAGUGACAGACCAUCUCUGAGAGAAUAACA	0.00126 ± 0.0095
UAGUGACAGUGGUUCUGUGUGAGAUUAACA	0.00167 ± 0.0059
UAGUGACAGUGGAAGAGAGAGAGAUAAUCA	0.000146 ± 0.04
UAGUGACAGACCUUCUCUCAGUGAUUAACA	0.00304 ± 0.0041
UAGUGUGUCUGCUUCUCUGAGAGAUUUUGA	0.000624 ± 0.01
UAGUGAGUCAGCUUCUCUGAGAGAUAUUGA	0.000914 ± 0.0098
UAGUGACUCACCUUGUCUGAGUGAUUAACA	0.00135 ± 0.0084
UAGUGACAGUCCUUCUCUGAGAGUAAAACA	0.000459 ± 0.013

Sequence	pre-steady-state target cleavage rate
UAGUGACAGUGCUUGAGUGAGAGAUUAACA	0.000543 ± 0.013
UAGUGACAGUGCUUCUCCGAGAGAUUAACA	0.0082 ± 0.0034
UAGUGACUCACCUUCUCUGAGUGUUUAACA	0.00112 ± 0.005
UAGUGUGUCACCUACUCUGAGAGAUUAAGA	0.1 ± 0.023
UAGUGACUCACCUUCUCUGUGAGAUAUUGA	0.00283 ± 0.0045
UAGUCUGUCACCUUCUCUGAGAGACUAACA	0.149 ± 0.027
UAGUGACAGUGGAACUCUGAGAGAUCAACA	0.000106 ± 0.045
UAGUGACUGUCCUUCUCUGAGAGAUUUUGA	0.000108 ± 0.06
UAGUCUGUCACCUUCUCUGACUCAUUUUGA	0.00094 ± 0.0055
UAGUGACACACCUUCUCUGACAGAUUUACA	0.00201 ± 0.0058
UAGUGACACACCUUGUCUGAGAGAUAUUGA	0.000475 ± 0.021
UAGUCUGACACCUUCUCUGAGAGAUAUUGA	0.000677 ± 0.0068
UAGUGACAGUGGAAGACUGAGAGAUUUAACA	0.000421 ± 0.01
UAGUGACUCACCUUGCUCUGAGAGAUUAACA	0.048 ± 0.016
UAGUGACAGUCCUUCUCUGUCAGAUUAACA	0.00261 ± 0.0031
UAGUGACACAGCUUCUCUGAGAGAUUUUGA	0.000762 ± 0.01
UAGUGACACACCUUCUCUAGAGAGAUUAACA	0.000791 ± 0.015
UAGUGACAGUGGAAGUCUGAAAGAUUAACA	0.000301 ± 0.015
UAGUCUGUCUCCUACUCUGAGAGAUUAACA	0.157 ± 0.0082
UAGUGACACACCUUCUCUGAGACUUUAUGA	0.000264 ± 0.017
UAGUGACAGUGGAUCCUCUGAGAGAUUAACA	0.00199 ± 0.0026
UAGUGACACACCUUGAGUGAGAGAUUAAGA	0.00097 ± 0.013
UAGUGACAGUGCUUCCUGAGAGAUUAACA	0.00339 ± 0.0047
UAGUGACACACCAUCUCUGAGAGAUUAUGA	0.00752 ± 0.0041

Sequence	pre-steady-state target cleavage rate
UAGUGACACACCUUGUCUGAGACAUUAACA	0.0978 ± 0.026
UAGUGACAGUGGAAGAGACUGAGCAUUAACA	0.00045 ± 0.011
UAGUGACAGUGGAACUCUGAGAGAUUAACC [g2:g16:cont:t1C]	0.000205 ± 0.032
UAGUGACAGUCCUUCUCUGAGACAUUUACA	0.000377 ± 0.014
UAGUAUGUCACCUUCUCUGAGAGAUUAACA	0.211 ± 0.019
UAGUGAGUCACCUUCUCUCUCAGAUUUUGA	0.000814 ± 0.014
UAGUGACAGUGGUUCUCUGAGAGAUAUAACA	0.000383 ± 0.013
UAGUGACAGUGGAACUCUGAGACGAUUAACA	0.00126 ± 0.015
UAGUGACAGUCCUUCUCUGAGAGUAUAACA	0.00121 ± 0.0043
UAGUGACUCACCUUCUCGUGAGAGAUUAACA	0.00068 ± 0.011
UAGUGACAGUCCUUCUCUCAGAGAUUAUCA	0.00297 ± 0.0045
UAGUCUGUCACCAAGUCUGAGAGAUUAUGA	0.00112 ± 0.0069
UAGUGAGUACACCUUCUCUGAGAGAUUAACA	0.237 ± 0.019
UAGUGACAGUGGUUCUCUGAGAGAUUCACA	0.000545 ± 0.0099
UAGUGACAGACCUACUCUGAGAGAAUAACA	0.00113 ± 0.0074
UAGUGACAGUGGAAGACUGAGAGAUGUAACA	0.000199 ± 0.011
UAGUGACAGACCUUGAGUGAGAGAUUAAGA	0.000293 ± 0.04
UAGUGAGUCACCUUCUCUGAGUCAUUAACA	0.00255 ± 0.0046
UAGUGACACACCUUCUCUGAGAGAAAUACA	0.0296 ± 0.013
UAGUGACAGUGGAUCUCUGAGACAUUAUCA	0.000139 ± 0.034
UAGUGACAGUGGUUCUCUGAGAGAUUACACA	0.000483 ± 0.0099
UAGUGACAGACCUUCUCACUGAGAUUAACA	0.000552 ± 0.018
UAGUGACAGUGGUUCUCUGAGAGCAUUAACA	0.00145 ± 0.0038

No new results follow: an excerpt of the list.
Sequence	pre-steady-state target cleavage rate
UAGUGACAGUGGAAGAGUGAGUCAUUAACA	0.00063 ± 0.011
UAGUGACAGACGUACUCUGAGAGAUUAACA	0.014 ± 0.0034
